Reference: PubChem BioAssay AID248 (DTP/NCI, 2004)
The list shows only some results of the screen, not a fair sample: it is rich in T/C values a quarter to a half above the control, in often repeated tests (any T/C) and in doses without a T/C. Other doses and runs of a compound stand elsewhere. T/C is the treated group as % of the vehicle group. Some entries give survivors of the animals treated and no T/C: the source files T/C as zero there, which appears to mark a toxic dose or a test without result, not a measured value. Some doses without a T/C left all or most animals alive at the check, yet need not have been tolerated: survival well below the control is almost never listed, so the zero probably covers shortened survival too. Counts of survivors are from the toxicity check (mostly the fifth day) where no day follows; animals may have died later. Schedules are NCI's codes, read here as Q, the interval in days (D) or hours (H), X, the number of doses. Some schedules carry Z or #; the key to these is not given. Some molecules as drawn cover several salts, stereoisomers or complexes of the source; a dose is that of the sample tested. Where survival is the endpoint, this PubChem deposit counts one and a half times the control or more as active, and values a quarter to a half above the control carry no call in these data; other NCI protocols may use other cut-offs. Some T/C values are followed by the survivors on the day toxicity was checked, most often the fifth; without a count, all were alive then. Some entries hold several experiments; their values stand side by side, smallest first.

System: L1210 leukemia ip in BDF1 mice, survival T/C
Experiment: NCI In Vivo Anticancer Drug Screen. Data for tumor model L1210 Leukemia (intraperitoneal) in B6D2F1 (BDF1) mice
Details: T/C endpoint: mean survival time, higher T/C = longer survival
[1] = dose: 400.0 mg/kg/injection, schedule: Q01DX009 (ip), vehicle: saline with Tween-80
[2] = dose: 80.0 mg/kg/injection, schedule: Q01DX001 (ip), vehicle: saline
[3] = dose: 100.0 mg/kg/injection, schedule: Q01DX001 (ip), vehicle: saline
[4] = dose: 200.0 mg/kg/injection, schedule: Q01DX001 (ip), vehicle: saline
[5] = dose: 400.0 mg/kg/injection, schedule: Q01DX001 (ip), vehicle: saline
[6] = dose: 200.0 mg/kg/injection, schedule: Q01DX009 (ip), vehicle: saline with Tween-80
[7] = dose: 100.0 mg/kg/injection, schedule: Q04DX003 (ip), vehicle: saline
[8] = dose: 200.0 mg/kg/injection, schedule: Q04DX003 (ip), vehicle: saline
[9] = dose: 400.0 mg/kg/injection, schedule: Q04DX003 (ip), vehicle: saline
[10] = dose: 400.0 mg/kg/injection, schedule: Q04DX003 (ip), vehicle: saline with Tween-80

## CN(C)CCNc1ccc([N+](=O)[O-])c2sc3ccccc3c(=O)c12
dose: 8.0 mg/kg/injection, schedule: Q01DX Z (ip), vehicle: methylcellulose (MC)
  T/C: 126 % of control
dose: 12.0 mg/kg/injection, schedule: Q01DX Z (ip), vehicle: methylcellulose (MC)
  T/C: 107 [5 of 6 alive], 134, 144, 153 % of control
dose: 17.7 mg/kg/injection, schedule: Q01DX Z (ip), vehicle: carboxymethylcellulose (CMC)
  T/C: 137 % of control
dose: 18.0 mg/kg/injection, schedule: Q01DX Z (ip), vehicle: carboxymethylcellulose (CMC)
  T/C: 128 % of control
dose: 18.0 mg/kg/injection, schedule: Q01DX Z (ip), vehicle: methylcellulose (MC)
  T/C: 102 [4 of 6 alive], 155, 163, 177 % of control
dose: 40.0 mg/kg/injection, schedule: Q01DX Z (ip), vehicle: carboxymethylcellulose (CMC)
  T/C: 142 % of control
dose: 40.0 mg/kg/injection, schedule: Q01DX Z (ip), vehicle: methylcellulose (MC)
  survivor count: 1 of 6
dose: 41.0 mg/kg/injection, schedule: Q01DX Z (ip), vehicle: methylcellulose (MC)
  T/C: 131 % of control
dose: 60.0 mg/kg/injection, schedule: Q01DX Z (ip), vehicle: carboxymethylcellulose (CMC)
  survivor count: 5 of 6
dose: 60.0 mg/kg/injection, schedule: Q01DX Z (ip), vehicle: methylcellulose (MC)
  survivor count: 6 of 6
dose: 90.0 mg/kg/injection, schedule: Q01DX Z (ip), vehicle: carboxymethylcellulose (CMC)
  survivor count: 6 of 6
dose: 90.0 mg/kg/injection, schedule: Q01DX Z (ip), vehicle: methylcellulose (MC)
  survivor count: 6 of 6

## O=C(CC(O)(C(F)(F)Cl)C(F)(F)Cl)c1cccc([N+](=O)[O-])c1
[1]
  survivor count: 1 of 6

## Cc1ccc[n+]2c1ccc1c3ccccc3ccc12
dose: 20.0 mg/kg/injection, schedule: Q01DX001 (ip), vehicle: saline
  survivor count: 3 of 6
dose: 40.0 mg/kg/injection, schedule: Q01DX001 (ip), vehicle: saline
  survivor count: 1 of 6
[2]
  survivor count: 0 of 6
[3]
  survivor count: 0 of 4
[4]
  survivor count: 0 of 4
[5]
  survivor count: 0 of 4

## CC(C)(Br)C(=O)c1ccco1
[6]
  survivor count: 1 of 6
[1]
  survivor count: 0 of 6

## COC(=O)c1ccc(NCC(C)(C)N)cc1
[3]
  survivor count: 0 of 6
[7]
  survivor count: 3 of 6
[4]
  survivor count: 0 of 6
[8]
  survivor count: 0 of 6
[5]
  survivor count: 0 of 6
[9]
  survivor count: 0 of 6

## O=C(CCCCCCCC(=O)Nc1cc(C2=NCCN2)cc(C2=NCCN2)c1)Nc1cc(C2=NCCN2)cc(C2=NCCN2)c1
dose: 25.0 mg/kg/injection, schedule: Q01DX Z (ip), vehicle: carboxymethylcellulose (CMC)
  survivor count: 1 of 6
dose: 50.0 mg/kg/injection, schedule: Q01DX Z (ip), vehicle: carboxymethylcellulose (CMC)
  survivor count: 0 of 6
dose: 100.0 mg/kg/injection, schedule: Q01DX Z (ip), vehicle: carboxymethylcellulose (CMC)
  survivor count: 0 of 6

## CS(=O)(=O)c1ccccc1C(=O)O
dose: 400.0 mg/kg/injection, schedule: Q01DX001 (ip), vehicle: acetone
  survivor count: 3 of 6

## O=[N+]([O-])CC(OCCCO)C(Cl)(Cl)Cl (centres undefined)
dose: 25.0 mg/kg/injection, schedule: Q01DX009 (ip), vehicle: saline with Tween-80
  survivor count: 6 of 6
dose: 100.0 mg/kg/injection, schedule: Q01DX009 (ip), vehicle: saline with Tween-80
  survivor count: 0 of 6
[6]
  survivor count: 0 of 6
[1]
  survivor count: 0 of 6

## Nc1nc2nc3c(nc2c(=O)[nH]1)CN(C1CCCCC1)C3=O
dose: 300.0 mg/kg/injection, schedule: Q01DX001 (ip), vehicle: carboxymethylcellulose (CMC)
  survivor count: 1 of 6

## [Cl][Sn]([CH]1CCCCC1)([CH]1CCCCC1)[CH]1CCCCC1
dose: 50.0 mg/kg/injection, schedule: Q04DX002 (ip), vehicle: gum acacia
  survivor count: 2 of 3
dose: 100.0 mg/kg/injection, schedule: Q04DX002 (ip), vehicle: gum acacia
  survivor count: 0 of 3
dose: 200.0 mg/kg/injection, schedule: Q04DX002 (ip), vehicle: gum acacia
  survivor count: 0 of 3
dose: 400.0 mg/kg/injection, schedule: Q04DX002 (ip), vehicle: gum acacia
  survivor count: 0 of 3

## CC1CN(C(C)(C)C)C1
dose: 200.0 mg/kg/injection, schedule: Q04DX003 (ip), vehicle: acetone
  survivor count: 0 of 6
dose: 400.0 mg/kg/injection, schedule: Q04DX003 (ip), vehicle: acetone
  survivor count: 0 of 6

## Nc1ncnc(N)c1NC(=O)CCCc1ccccc1
dose: 400.0 mg/kg/injection, schedule: Q04DX003 (ip), vehicle: Klucel (hydroxypropylcellulose) (HPC)
  survivor count: 6 of 6

## CC12CC3(C)CC(C)(C1)CC(NC(=O)N(CCCl)N=O)(C2)C3
dose: 10.0 mg/kg/injection, schedule: Q01DX001 (ip), vehicle: other
  T/C: 137 % of control
dose: 30.0 mg/kg/injection, schedule: Q01DX001 (ip), vehicle: other
  T/C: 143 % of control
dose: 40.0 mg/kg/injection, schedule: Q01DX001 (ip), vehicle: other
  T/C: 148 % of control
dose: 60.0 mg/kg/injection, schedule: Q01DX001 (ip), vehicle: other
  T/C: 143 % of control
dose: 93.0 mg/kg/injection, schedule: Q01DX001 (ip), vehicle: other
  T/C: 149 % of control

## CCN(CC)CCCC(C)NC(=O)c1cccc2c([N+](=O)[O-])cccc12 (centres undefined)
dose: 200.0 mg/kg/injection, schedule: Q01DX009 (ip), vehicle: water
  survivor count: 3 of 6
dose: 400.0 mg/kg/injection, schedule: Q01DX009 (ip), vehicle: water
  survivor count: 0 of 6

## Nc1nc2c(ncn2-c2cccc(Cl)c2)c(=O)[nH]1
[10]
  survivor count: 6 of 6

## N#Cc1ccc([N+](=O)[O-])cc1O
[5]
  survivor count: 3 of 6

## CC(=O)Nc1ccc(Cc2ccc(N)cc2)cc1
[5]
  survivor count: 2 of 6

## CCOC(=O)CC(=O)C(F)(F)F.CCOC(=O)CC(=O)C(F)(F)F.[Ni]
[2]
  survivor count: 3 of 6

## Nc1nc(=S)c2ncn(CN3CCCCC3)c2[nH]1
dose: 1.3 mg/kg/injection, schedule: Q01DX Z (ip), vehicle: carboxymethylcellulose (CMC)
  T/C: 140 % of control
dose: 2.0 mg/kg/injection, schedule: Q01DX Z (ip), vehicle: carboxymethylcellulose (CMC)
  T/C: 146 % of control
dose: 3.0 mg/kg/injection, schedule: Q01DX Z (ip), vehicle: carboxymethylcellulose (CMC)
  T/C: 145 % of control [5 of 6 alive]
dose: 4.5 mg/kg/injection, schedule: Q01DX Z (ip), vehicle: carboxymethylcellulose (CMC)
  T/C: 137 % of control

## O=S(=O)(O)c1ccccc1.O=S(=O)(O)c1ccccc1.[NH-]C1CCCCC1[NH-].[Pt+2]
dose: 1.0 mg/kg/injection, schedule: Q04DX003 (ip), vehicle: dextrose
  T/C: 129 % of control

## c1ccc2c(CCNC3=NCCO3)c[nH]c2c1
dose: 200.0 mg/kg/injection, schedule: Q04DX002 (ip), vehicle: saline with Tween-80
  survivor count: 0 of 3
dose: 400.0 mg/kg/injection, schedule: Q04DX002 (ip), vehicle: saline with Tween-80
  survivor count: 0 of 3

## CCCCNC(C)(C)C(SSSC(c1ccc(Cl)cc1)C(C)(C)NCCCC)c1ccc(Cl)cc1 (centres undefined)
[7]
  survivor count: 2 of 6
[8]
  survivor count: 0 of 6
[9]
  survivor count: 0 of 6

## CC1CCCC(CN=Cc2ccccc2O)[N-]1.CC1CCCC(CN=Cc2ccccc2O)[N-]1.[Ni+2] (centres undefined)
dose: 200.0 mg/kg/injection, schedule: Q04DX003 (ip), vehicle: saline with Tween-80
  survivor count: 6 of 6
[10]
  survivor count: 1 of 6

## COC(=O)C1C(O)C(C)C(O)C(C)C=C(C)C2=C3C(=C(C)C(=O)c4c(O)c(c(C)c(OC(C)=O)c43)NC(=O)C(C)=C/C=C\C(C)C(O)C(C)C1O)OCO2 (centres undefined)
dose: 400.0 mg/kg/injection, schedule: Q04DX002 (ip), vehicle: Klucel (hydroxypropylcellulose) (HPC)
  survivor count: 1 of 3

## Cc1ccc(N)c2cccnc12
dose: 200.0 mg/kg/injection, schedule: Q01DX009 (ip), vehicle: Klucel (hydroxypropylcellulose) (HPC)
  survivor count: 6 of 6
dose: 400.0 mg/kg/injection, schedule: Q01DX009 (ip), vehicle: Klucel (hydroxypropylcellulose) (HPC)
  survivor count: 1 of 6
